Measurements reported in PubChem BioAssay AID686943 (Drosophila RNAi Screening Center, 2013)

Test: 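Fly genes whose loss alters ERK activation after insulin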 (primary screen)
System: Drosophila S2R+ haemocyte-like cells expressing YFP-tagged ERK (Rolled)
Reagents: long dsRNA against Drosophila genes
Treatment: insulin stimulation versus unstimulated cells; dose and duration not given
Measured: 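Per-plate z-scores of phospho-ERK immunostaining normalised to YFP-tagged ERK, measured with and without insulin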
Scale: replicate 1, z-score of dpERK with insulin: higher = more active ERK per ERK-YFP after insulin
In all, the deposit lists about 23,000 reagents; shown is an unselected part of those that have a named target and a result. 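Extra replicates exist only for a retested subset of genes; insulin dose and duration not given; both raised and lowered dpERK matter.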 Further read-outs or replicates are left out here. Not stated in the record: the amount of reagent, the time to read-out.

replicate 1, z-score of dpERK with insulin, by gene and reagent
CG32727: DRSC17519 -0.24
CG13361: DRSC17896 -0.02
CG30472: DRSC22245 0.89
HisCl1 (Histamine-gated chloride channel subunit 1): DRSC14945 -0.08
ACXE (Adenylyl cyclase X E): DRSC00847 -0.32
rad (retired record): DRSC18966 -0.42; DRSC19687 1.73; DRSC19816 -5.11; DRSC22865 -0.08
Jhe (Juvenile hormone esterase): DRSC07174 0.37
nkt (noktochor): DRSC10144 0.25
Cpr65Aw (Cuticular protein 65Aw): DRSC08794 -1.52
CG17784: DRSC15268 -0.1
CG13855: DRSC14705 -0.3
Alg9 (ALG9, alpha-1,2-mannosyltransferase): DRSC14407 -0.53
CG11400: DRSC06070 0.15
CG6191: DRSC05938 -0.8
CG33922: DRSC00050 0.22
CG4982: DRSC10465 -1.68
Obp56g (Odorant-binding protein 56g): DRSC06432 -0.3
ND-19 (NADH dehydrogenase (ubiquinone) 19 kDa subunit): DRSC04404 0.61
Cp19 (Chorion protein 19): DRSC11121 -0.8
sni (sniffer): DRSC17770 0.51
CG1847: DRSC19810 -0.68
MESK2 (Misexpression suppressor of KSR 2): DRSC04258 0.41
Mgtor (Megator): DRSC05958 -0.34
CG7443: DRSC16244 -0.21
Prosbeta5R1 (Proteasome beta5 subunit-related 1): DRSC04581 2.1
RanBPM (Ran-binding protein M): DRSC06079 0.16
Sem1 (Suppressor of exocyst mutations 1): DRSC02282 -2.07
CG4554: DRSC04473 -0.04
CG11110: DRSC06037 1.52
Ubc87F (Ubiquitin conjugating enzyme 87F): DRSC16513 2.34
CG8142: DRSC20086 0.37
AhcyL2 (Adenosylhomocysteinase like 2): DRSC14107 0.35
CG15740: DRSC19706 -3.39
spas (spastin): DRSC15929 1.38
7B2: DRSC11991 1.29
CG2006: DRSC15412 -0.05

Look-ups from the list:
Entry for sni (sniffer) [DRSC17770] in “replicate 1, z-score of dpERK with insulin”: 0.51
Entry for nkt (noktochor) [DRSC10144] in “replicate 1, z-score of dpERK with insulin”: 0.25
For “replicate 1, z-score of dpERK with insulin”, CG4554 [DRSC04473] has -0.04
